Results: publication PMC9748848
Read-outs that look alike come from different tables or passages of the source. Results are given in words; binding and its absence hold for the method and conditions named. Binding seen in cells or lysates may run through a third protein. Some results given as binding are weak or reduced against the parent protein; the word gives no strength. Each block holds one molecule with its values, some of them ahead of it.

Sequences of proteins named here, by UniProt entry; tags and fusion partners are left off. Residues count along the entry.
UniProt P10809, residues 27-573: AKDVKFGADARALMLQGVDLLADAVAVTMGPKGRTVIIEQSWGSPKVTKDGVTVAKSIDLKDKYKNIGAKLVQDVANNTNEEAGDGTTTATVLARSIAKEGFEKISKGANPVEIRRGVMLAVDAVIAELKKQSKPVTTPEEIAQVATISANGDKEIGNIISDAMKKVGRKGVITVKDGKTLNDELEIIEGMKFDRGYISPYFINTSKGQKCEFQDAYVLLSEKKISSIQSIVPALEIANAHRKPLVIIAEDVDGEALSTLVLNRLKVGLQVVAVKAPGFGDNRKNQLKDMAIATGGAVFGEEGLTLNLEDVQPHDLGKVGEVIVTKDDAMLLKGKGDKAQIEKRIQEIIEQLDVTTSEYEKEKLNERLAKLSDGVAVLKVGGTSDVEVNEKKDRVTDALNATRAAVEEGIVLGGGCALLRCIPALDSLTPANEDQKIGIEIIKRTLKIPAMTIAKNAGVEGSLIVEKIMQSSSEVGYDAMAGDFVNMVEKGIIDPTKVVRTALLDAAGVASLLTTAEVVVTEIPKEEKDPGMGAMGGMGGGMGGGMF
UniProt O00206, residues 24-839: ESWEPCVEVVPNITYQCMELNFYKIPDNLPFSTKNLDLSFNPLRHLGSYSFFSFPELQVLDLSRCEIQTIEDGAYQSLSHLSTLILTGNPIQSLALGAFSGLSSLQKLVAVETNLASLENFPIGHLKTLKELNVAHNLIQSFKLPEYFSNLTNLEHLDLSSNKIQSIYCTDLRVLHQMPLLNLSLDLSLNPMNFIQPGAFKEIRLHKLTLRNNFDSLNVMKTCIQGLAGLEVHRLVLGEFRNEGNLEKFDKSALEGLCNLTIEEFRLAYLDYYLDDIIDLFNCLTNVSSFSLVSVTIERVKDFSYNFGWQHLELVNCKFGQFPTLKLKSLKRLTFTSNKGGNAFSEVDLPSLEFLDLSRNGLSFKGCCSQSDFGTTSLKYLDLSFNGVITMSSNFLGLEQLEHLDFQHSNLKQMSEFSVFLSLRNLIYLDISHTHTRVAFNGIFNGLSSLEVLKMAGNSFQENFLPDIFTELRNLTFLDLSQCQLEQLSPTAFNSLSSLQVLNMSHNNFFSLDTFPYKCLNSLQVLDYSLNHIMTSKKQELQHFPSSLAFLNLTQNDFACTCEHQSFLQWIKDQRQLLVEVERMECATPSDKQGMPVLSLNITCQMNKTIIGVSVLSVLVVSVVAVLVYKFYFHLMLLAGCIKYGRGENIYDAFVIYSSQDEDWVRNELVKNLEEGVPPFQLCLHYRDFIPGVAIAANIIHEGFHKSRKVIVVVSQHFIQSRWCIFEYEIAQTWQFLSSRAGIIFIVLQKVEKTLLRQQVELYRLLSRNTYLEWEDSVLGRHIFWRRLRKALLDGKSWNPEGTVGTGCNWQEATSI

Key:
[1] = biological target: chaperonin 60 (CH60), cell surface / plasma membrane-associated (human (endogenous in RPMI8226)) (UniProt P10809); assay: pull-down; streptavidin-agarose coprecipitation of biotinylated CH60 (labelled via biotinylated MBP-PTR1) from gel-filtered RPMI8226 membrane fractions; binding buffer 150 mM NaCl, 20 mM Tris-HCl, 1 mM EDTA, resin blocked with 1% BSA, overnight at 4°C; immunoblot; competition control with excess non-biotinylated MBP-PTR1
[2] = biological target: chaperonin 60 (CH60), cell surface / plasma membrane-associated (human (endogenous in RPMI8226)) (UniProt P10809); assay: as above; remark: listed apart in the source

binding [1]: binds
Molecule: TLR4 (from UniProt O00206 24-839) (receptor)

binding [2]: no binding
B1: CD14 (protein, UniProt P08571 20-345)
chain: TTPEPCELDDEDFRCVCNFSEPQPDWSEAFQCVSAVEVEIHAGGLNLEPFLKRVDADADPRQYADTVKALRVRRLTVGAAQVPAQLLVGALRVLAYSRLKELTLEDLKITGTMPPLPLEATGLALSSLRLRNVSWATGRSWLAELQQWLKPGLKVLSIAQAHSPAFSCEQVRAFPALTSLDLSDNPGLGERGLMAALCPHKFPAIQNLALRNTGMETPTGVCAALAAAGVQPHSLDLSHNSLRATVNPSAPRCMWSSALNSLNLSFAGLEQVPKGLPAKLRVLDLSCNRLNRAPQPDELPEVDNLTLDGNPFLVPGTALPHEGSMN

binding [2]: binds
B2: MD-2 (protein, UniProt Q9Y6Y9 19-160)
chain: QKQYWVCNSSDASISYTYCDKMQYPISINVNPCIELKRSKGLLHIFYIPRRDLKQLYFNLYITVNTMNLPKRKEVICRGSDDDYSFCRALKGETVNTTISFSFKGIKFSKGKYKCVVEAISGSPEEMLFCLEFVILHQPNSN
